Test results: PubChem BioAssay AID192 (DTP/NCI, 2004)
The list is a part of this screen's results and no random one: it is rich in T/C values a quarter to a half above the control, in often repeated tests (any T/C) and in doses without a T/C. Other doses and runs of a compound stand elsewhere. T/C: endpoint of the treated group in % of that of the vehicle group. Some entries give survivors of the animals treated and no T/C: the source files T/C as zero there, which appears to mark a toxic dose or a test without result, not a measured value. Some survivor counts are full or nearly so, which does not show that the dose was tolerated: survival well below the control is almost never listed, so the zero probably covers shortened survival too. Counts of survivors are from the toxicity check (mostly the fifth day) where no day follows; animals may have died later. Schedule codes are those of the source, read here as Q, the interval in days (D) or hours (H), X, the number of doses. Some entries hold several experiments; the values are given in rising order. Brackets with × count equal records among those shown. Where survival is the endpoint, this PubChem deposit counts one and a half times the control or more as active, and values a quarter to a half above the control carry no call in these data; other NCI protocols may use other cut-offs. Some T/C values are followed by the survivors on the day toxicity was checked, most often the fifth; without a count, all were alive then.

System: BDF1 mice, B16 melanoma ip, median survival T/C
Test: NCI In Vivo Anticancer Drug Screen. Data for tumor model B16 Melanoma (intraperitoneal) in B6D2F1 (BDF1) mice
Conditions: T/C endpoint: median survival time, higher T/C = longer survival
In short: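 Read-out: survival or tumor size, given as treated/control ratio. Controls received vehicle only; animals bore transplantable tumors.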

[1] = dose: 400.0 mg/kg/injection, schedule: Q01DX009 (ip), vehicle: Klucel (hydroxypropylcellulose) (HPC)
[2] = dose: 37.5 mg/kg/injection, schedule: Q01DX009 (ip), vehicle: alcohol
[3] = dose: 200.0 mg/kg/injection, schedule: Q01DX009 (ip), vehicle: Klucel (hydroxypropylcellulose) (HPC)

SMILES: CN(C)NCCC#N
- T/C (dose: 150.0 mg/kg/injection, schedule: Q01DX009 (ip), vehicle: saline): 145 % of control
- survivor count (dose: 169.0 mg/kg/injection, schedule: Q01DX009 (ip), vehicle: saline): 10 of 10
- survivor count (dose: 300.0 mg/kg/injection, schedule: Q01DX009 (ip), vehicle: saline): 8 of 10
- survivor count (dose: 600.0 mg/kg/injection, schedule: Q01DX009 (ip), vehicle: saline): 0 of 10

SMILES: COc1cccc2c1C(=O)c1c(O)c3c(c(O)c1C2=O)C[C@H](O)C[C@@H]3OC1CC(N)C(O)C(C)O1 (stereo partly drawn)
- T/C (dose: 6.25 mg/kg/injection, schedule: Q01DX001 (ip), vehicle: water): 149 % of control
- survivor count (dose: 100.0 mg/kg/injection, schedule: Q01DX001 (ip), vehicle: water): 1 of 10 and 7 of 10
- survivor count (dose: 200.0 mg/kg/injection, schedule: Q01DX001 (ip), vehicle: water): 0 of 10 and 2 of 10
- survivor count (dose: 400.0 mg/kg/injection, schedule: Q01DX001 (ip), vehicle: water): 0 of 10 (2×)

SMILES: N#CCCC1C2CCC(C2)C1C#N (stereo not drawn)
- survivor count (dose: 20.0 mg/kg/injection, schedule: Q01DX009 (ip), vehicle: Klucel (hydroxypropylcellulose) (HPC)): 5 of 10

SMILES: NCC(c1ccccc1)c1ccccc1
- survivor count (dose: 75.0 mg/kg/injection, schedule: Q01DX009 (ip), vehicle: saline): 0 of 10
- survivor count (dose: 115.0 mg/kg/injection, schedule: Q01DX009 (ip), vehicle: saline): 0 of 10
- survivor count (dose: 170.0 mg/kg/injection, schedule: Q01DX009 (ip), vehicle: saline): 0 of 10

SMILES: CN1CCN(C2=C(Cl)C(=O)c3ccccc3C2=O)CC1
- survivor count (dose: 5.0 mg/kg/injection, schedule: Q01DX009 (ip), vehicle: saline): 10 of 10
- survivor count (dose: 10.0 mg/kg/injection, schedule: Q01DX009 (ip), vehicle: saline): 10 of 10

SMILES: C=CCN1/C(=C/C=C\c2sc3ccccc3[n+]2CC=C)Sc2ccccc21
- survivor count (dose: 1.0 mg/kg/injection, schedule: Q01DX009 (ip), vehicle: saline with Tween-80): 4 of 6

SMILES: CC(=O)[O][Pb]([O]C(C)=O)([c]1ccccc1)[c]1ccccc1
- survivor count (dose: 100.0 mg/kg/injection, schedule: Q01DX009 (ip), vehicle: Klucel (hydroxypropylcellulose) (HPC)): 10 of 10

SMILES: CCC(=O)c1ccccc1N
- survivor count [1]: 4 of 10

SMILES: CCCCNC(C)(C)C(SS)c1ccco1 (stereo not drawn)
- survivor count (dose: 24.0 mg/kg/injection, schedule: Q01DX009 (ip), vehicle: alcohol): 10 of 10
- survivor count (dose: 24.0 mg/kg/injection, schedule: Q01DX009 (ip), vehicle: saline): 4 of 4
- T/C [2]: 135 % of control
- survivor count [2]: 10 of 10
- survivor count (dose: 55.0 mg/kg/injection, schedule: Q01DX009 (ip), vehicle: alcohol): 10 of 10
- survivor count (dose: 75.0 mg/kg/injection, schedule: Q01DX009 (ip), vehicle: alcohol): 9 of 10
- survivor count (dose: 150.0 mg/kg/injection, schedule: Q01DX009 (ip), vehicle: alcohol): 2 of 10

SMILES: C=CCN(C)N=Nc1ccc(C(N)=O)cc1
- survivor count [3]: 10 of 10

SMILES: CCOC(=O)C(C)(C)Oc1ccc(Cl)cc1
- survivor count (dose: 200.0 mg/kg/injection, schedule: Q01DX009 (ip), vehicle: saline with Tween-80): 10 of 10
- survivor count (dose: 400.0 mg/kg/injection, schedule: Q01DX009 (ip), vehicle: saline with Tween-80): 7 of 10 and 10 of 10

SMILES: CN(CCN(C)Cc1ccccc1)Cc1ccccc1
- survivor count (dose: 100.0 mg/kg/injection, schedule: Q01DX009 (ip), vehicle: saline): 5 of 10

SMILES: NC1=NC(=O)C(c2ccccc2)O1 (stereo not drawn)
- survivor count (dose: 50.0 mg/kg/injection, schedule: Q01DX009 (ip), vehicle: Klucel (hydroxypropylcellulose) (HPC)): 9 of 10
- survivor count [3]: 9 of 10

SMILES: CC[C@](C)(O)C(=O)O[C@H]1C(=O)O[C@@H]2C[C@H]3C(C)=CC(=O)[C@@H](O)[C@]3(C)[C@H]3[C@@]4(O)OC[C@]32[C@@H]1[C@@H](C)[C@H]4O
- T/C (dose: 0.12 mg/kg/injection, schedule: Q01DX009 (ip), vehicle: saline): 130 and 143 % of control
- T/C (dose: 0.25 mg/kg/injection, schedule: Q01DX009 (ip), vehicle: saline): 136 % of control
- T/C (dose: 0.5 mg/kg/injection, schedule: Q01DX009 (ip), vehicle: saline): 130 % of control [7 of 10 alive]
- T/C (dose: 0.5 mg/kg/injection, schedule: Q01DX009 (ip), vehicle: steroid suspending solution): 141 % of control
- T/C (dose: 1.0 mg/kg/injection, schedule: Q01DX009 (ip), vehicle: Klucel (hydroxypropylcellulose) (HPC)): 132 % of control
- survivor count (dose: 1.0 mg/kg/injection, schedule: Q01DX009 (ip), vehicle: saline): 3 of 10 and 6 of 10
- survivor count (dose: 2.0 mg/kg/injection, schedule: Q01DX009 (ip), vehicle: steroid suspending solution): 2 of 10
- T/C (dose: 1000.0 micrograms/kg/injection, schedule: Q01DX009 (ip), vehicle: saline with Tween-80): 138 % of control

SMILES: O=S(=O)([O-])NC1CCCCC1.O=S(=O)([O-])NC1CCCCC1.[Hg+2].[Hg+2].[Hg+2].[O-2].[O-2]
- survivor count (dose: 2.0 mg/kg/injection, schedule: Q01DX009 (ip), vehicle: saline): 7 of 10 and 10 of 10
- survivor count (dose: 4.0 mg/kg/injection, schedule: Q01DX009 (ip), vehicle: saline): 3 of 10
- survivor count (dose: 8.0 mg/kg/injection, schedule: Q01DX009 (ip), vehicle: saline): 2 of 10
- survivor count (dose: 16.0 mg/kg/injection, schedule: Q01DX009 (ip), vehicle: saline): 0 of 10

SMILES: CN1CC[C@]23c4c5ccc(O)c4O[C@H]2C(=O)CC[C@H]3[C@H]1C5
- survivor count (dose: 100.0 mg/kg/injection, schedule: Q01DX005 (iv), vehicle: saline): 1 of 6
- survivor count (dose: 200.0 mg/kg/injection, schedule: Q01DX005 (iv), vehicle: saline): 0 of 6

SMILES: COC1C(O)CC(OC2CC(OC3CC(O[C@@H]4C(=O)c5c(cc6cc(OC7CC(OC8CC(O)C(O)C(C)O8)C(O)C(C)O7)c(C)c(O)c6c5O)C[C@H]4[C@H](OC)C(=O)[C@@H](O)[C@@H](C)O)OC(C)C3O)OC(C)C2O)OC1C (stereo partly drawn)
- T/C (dose: 375.0 micrograms/kg/injection, schedule: Q01DX009 (ip), vehicle: water): 130 % of control
- T/C (dose: 750.0 micrograms/kg/injection, schedule: Q01DX009 (ip), vehicle: water): 127 % of control
- T/C (dose: 1500.0 micrograms/kg/injection, schedule: Q01DX009 (ip), vehicle: water): 125 and 134 % of control [9 of 10 alive]
- survivor count (dose: 3000.0 micrograms/kg/injection, schedule: Q01DX009 (ip), vehicle: water): 9 of 10

SMILES: Nc1nc(Cl)c2[nH]cnc2n1
- survivor count (dose: 0.38 mg/kg/injection, schedule: Q01DX009 (ip), vehicle: other): 8 of 10
- survivor count (dose: 1.5 mg/kg/injection, schedule: Q01DX009 (ip), vehicle: other): 9 of 10
- survivor count (dose: 1.6 mg/kg/injection, schedule: Q01DX009 (ip), vehicle: other): 6 of 10
- survivor count (dose: 3.12 mg/kg/injection, schedule: Q01DX009 (ip), vehicle: other): 3 of 10
- survivor count (dose: 6.25 mg/kg/injection, schedule: Q01DX009 (ip), vehicle: other): 9 of 10
- survivor count (dose: 12.5 mg/kg/injection, schedule: Q01DX009 (ip), vehicle: other): 7 of 10
- survivor count (dose: 100.0 mg/kg/injection, schedule: Q01DX009 (ip), vehicle: other): 8 of 10
- survivor count (dose: 200.0 mg/kg/injection, schedule: Q01DX009 (ip), vehicle: other): 2 of 10
- survivor count (dose: 400.0 mg/kg/injection, schedule: Q01DX009 (ip), vehicle: other): 0 of 10

SMILES: CCCCCCCCCCCCNC(=O)Nc1ccc(C)cc1C
- survivor count [1]: 9 of 10
